Assay results: patent publication US20230073007A1, “SWITCHING BINDER, PREPARATION METHOD THEREFOR, AND PHARMACEUTICAL COMPOSITION, ASSAY KIT, AND ANTIGEN AND ANTIBODY ASSAY METHOD, EACH USING SAME” (OPTOLANE TECHNOLOGIES INC., priority 2019, published 2023)
No constants are given. Whether binding was seen depends on the method and setting.

Assays:
[1] = biological target: HBsAg; experiment: fluorescent peptide on immobilized protein (100 µg/mL coating)
[2] = biological target: HBsAg; experiment: fluorescence of labelled peptide (20 µM) on protein coated at 100 µg/mL on a solid support

| binding [1] | binding [2] | Binder |
| --- | --- | --- |
| no binding (tested: 20 µM) | no binding (tested: 20 µM) | VYYCAREPTGTGIYFDVWGK (fluorescence-labeled in the fluorescence assays (dye and position not stated)) [switching binder of SEQ ID NO. 2 (H2)] |
| no binding (tested: 20 µM) | no binding (tested: 20 µM) | TYLEWYPQKPGQSPKLLIYK (fluorescence-labeled in the fluorescence assays (dye and position not stated)) [switching binder of SEQ ID NO. 3 (L1)] |
| no binding (tested: 20 µM) | no binding (tested: 20 µM) | SYWIHWVKQRPGQGLEWIGE (fluorescence-labeled in the fluorescence assays (dye and position not stated)) [switching binder of SEQ ID NO. 1 (H1)] |
| no binding (tested: 20 µM) | no binding (tested: 20 µM) | VYYCFQGSHVPFTK (fluorescence-labeled in the fluorescence assays (dye and position not stated)) [switching binder of SEQ ID NO. 4 (L2)] |
